# Reference: patent publication US9273038B2, “Solid forms of an ion channel modulator” (Gilead Sciences, Inc., priority 2014, dated 2016)
# Some results were stated once for a whole list of compounds, not compound by compound.
# Assay: Determination of transition temperature between Forms I and II (slurries at 35 and 38° C., pXRD)
# Assay type: physicochemical
# Conditions: enantiotropic forms; slurries at 35° C. and 38° C.
# Experimental: […] describes the set of experiments which concluded that Form I and II are enantiotropic forms and determined the transition temperature. Slurries of Form I with and without Form II seeds were stirred at 35° C. and 38° C. and samples were removed periodically for pXRD analysis. For slurries of Form I aged at 35° C., Form I dominated regardless of whether Form II seeds were present (albeit when Form II seeds were present, the full conversion to Form I took about 5 days) (Table 4). In contrast, slurries of Form I at 38° C. in the presence of Form II seeds rapidly turned over to Form II within 1 day and remained Form II even after the slurry was cooled to 20° C. for isolation. When no Form II seeds were present, Form I slurries remained unchanged even when aged at 38° C.
compound,measurement,value
"O=C1c2cc(-c3ccc(OC(F)(F)F)cc3)ccc2OCCN1Cc1ncccn1 [Compound I Form I, 4-(pyrimidin-2-ylmethyl)-7-(4-(trifluoromethoxy)phenyl)-3,4-dihydrobenzo[f][1,4]oxazepin-5(2H)-one]",Transition temperature between Forms I and II,35 to 38 °C
